Values from PubChem BioAssay AID1259254 (NCATS, 2017).

Purpose: 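Genome-wide screen for genes that prevent DNA re-replication in cancer cells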 (primary screen)
Cells: human HCT116 colorectal cancer cells
Reagents: single siRNA against human genes
Time to read-out: 3 days
Measured: 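Imaged Hoechst DNA stain sorts each cell into a cycle phase by DNA amount; per plate, G2 fraction set to 0% for non-targeting and 100% for GMNN siRNA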
Reading the numbers: G2 robust z-score and G2 cells, % of GMNN control: higher = more G2 cells, more excess DNA replication; raw share of cells in G2: higher = larger share of cells with G2 DNA content
Call rule: 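An siRNA counts as active if its G2 robust z-score lies at least 5 MADs above the screen median; here such calls match roughly 38% of GMNN control or more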
Here is one part, drawn at random, of about 59,000 reagents tested. In the full data, about 1,550 (2.6%) got an active call. 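G2 share is only a proxy for re-replication; each gene was hit by three separate siRNAs, and active genes were retested.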 Raw values vary from plate to plate and are shown uncorrected. The numbers tell different reagents against one gene apart. Not given: the amount of reagent.

Gene | siRNA no. | G2 robust z-score | G2 cells, % of GMNN control | raw share of cells in G2 (%) | Outcome
BLVRA (biliverdin reductase A) | 1 | -0.81 | -2.73 | 3.79 | inactive
BLVRA (biliverdin reductase A) | 2 | -0.751 | -2.32 | 4.25 | inactive
BLVRA (biliverdin reductase A) | 3 | -0.797 | -2.64 | 3.01 | inactive
KCTD16 (potassium channel tetramerization domain containing 16) | 1 | 0.0926 | 3.62 | 4.07 | inactive
KCTD16 (potassium channel tetramerization domain containing 16) | 2 | -0.995 | -4.04 | 4.09 | inactive
KCTD16 (potassium channel tetramerization domain containing 16) | 3 | -0.854 | -3.04 | 2.68 | inactive
CCND1 (cyclin D1) | 1 | 0.985 | 9.9 | 8.6 | inactive
CCND1 (cyclin D1) | 2 | -1.41 | -6.96 | 1.4 | inactive
CCND1 (cyclin D1) | 3 | -1.02 | -4.18 | 3.29 | inactive
CD1B (CD1b molecule) | 1 | 2.23 | 18.7 | 11.6 | inactive
CD1B (CD1b molecule) | 2 | -0.149 | 1.92 | 5.69 | inactive
CD1B (CD1b molecule) | 3 | -0.697 | -1.94 | 3.43 | inactive
TIMM21 (translocase of inner mitochondrial membrane 21) | 1 | 0.826 | 8.78 | 7.21 | inactive
TIMM21 (translocase of inner mitochondrial membrane 21) | 2 | 0.62 | 7.33 | 7.32 | inactive
TIMM21 (translocase of inner mitochondrial membrane 21) | 3 | -0.631 | -1.47 | 2.79 | inactive
ABITRAM (actin binding transcription modulator) | 1 | -0.606 | -1.3 | 3.14 | inactive
ABITRAM (actin binding transcription modulator) | 2 | 1.12 | 10.9 | 8.85 | inactive
ABITRAM (actin binding transcription modulator) | 3 | -0.304 | 0.828 | 3.47 | inactive
SLC15A4 | 1 | 0.609 | 7.25 | 7.22 | inactive
SLC15A4 | 2 | -0.656 | -1.65 | 4.91 | inactive
SLC15A4 | 3 | -1.07 | -4.53 | 3.02 | inactive
LOC729722 (retired record) | 1 | -0.382 | 0.28 | 4.2 | inactive
LOC729722 (retired record) | 2 | 2.33 | 19.4 | 9.76 | inactive
LOC729722 (retired record) | 3 | 1 | 10 | 6.83 | inactive
LACTBL1 (lactamase beta like 1) | 1 | -0.305 | 0.822 | 4.09 | inactive
LACTBL1 (lactamase beta like 1) | 2 | -0.853 | -3.04 | 2.1 | inactive
LACTBL1 (lactamase beta like 1) | 3 | 3.42 | 27 | 11.6 | inactive
GET4 (guided entry of tail-anchored proteins factor 4) | 1 | 0.736 | 8.14 | 6.52 | inactive
GET4 (guided entry of tail-anchored proteins factor 4) | 2 | 2.95 | 23.7 | 14.3 | inactive
GET4 (guided entry of tail-anchored proteins factor 4) | 3 | 0.201 | 4.38 | 4.64 | inactive
LANCL1 (LanC like glutathione S-transferase 1) | 1 | 0.12 | 3.81 | 7.21 | inactive
LANCL1 (LanC like glutathione S-transferase 1) | 2 | 3.41 | 26.9 | 13.9 | inactive
LANCL1 (LanC like glutathione S-transferase 1) | 3 | -1.19 | -5.39 | 1.62 | inactive
MIER3 (MIER family member 3) | 1 | -0.83 | -2.87 | 2.57 | inactive
MIER3 (MIER family member 3) | 2 | -0.398 | 0.164 | 3.01 | inactive
MIER3 (MIER family member 3) | 3 | 1.97 | 16.9 | 8.09 | inactive
EOGT (EGF domain specific O-linked N-acetylglucosamine transferase) | 1 | 1.21 | 11.5 | 8.49 | inactive
EOGT (EGF domain specific O-linked N-acetylglucosamine transferase) | 2 | -0.946 | -3.69 | 4.31 | inactive
EOGT (EGF domain specific O-linked N-acetylglucosamine transferase) | 3 | -0.516 | -0.663 | 4.7 | inactive
TMTC1 (transmembrane O-mannosyltransferase targeting cadherins 1) | 1 | -0.217 | 1.44 | 5.32 | inactive
TMTC1 (transmembrane O-mannosyltransferase targeting cadherins 1) | 2 | -0.976 | -3.9 | 3.81 | inactive
TMTC1 (transmembrane O-mannosyltransferase targeting cadherins 1) | 3 | 0.854 | 8.98 | 7.44 | inactive
HLA-DRA (major histocompatibility complex, class II, DR alpha) | 1 | -0.642 | -1.55 | 4.58 | inactive
HLA-DRA (major histocompatibility complex, class II, DR alpha) | 2 | 3.27 | 25.9 | 13.6 | inactive
HLA-DRA (major histocompatibility complex, class II, DR alpha) | 3 | -0.664 | -1.7 | 2.86 | inactive
ST8SIA2 (ST8 alpha-N-acetyl-neuraminide alpha-2,8-sialyltransferase 2) | 1 | 0.0289 | 3.17 | 5.52 | inactive
ST8SIA2 (ST8 alpha-N-acetyl-neuraminide alpha-2,8-sialyltransferase 2) | 2 | 0.526 | 6.67 | 8.41 | inactive
ST8SIA2 (ST8 alpha-N-acetyl-neuraminide alpha-2,8-sialyltransferase 2) | 3 | -0.299 | 0.867 | 4.58 | inactive
C11orf65 (chromosome 11 open reading frame 65) | 1 | -0.509 | -0.612 | 3.38 | inactive
C11orf65 (chromosome 11 open reading frame 65) | 2 | 6.08 | 45.7 | 18.3 | active
C11orf65 (chromosome 11 open reading frame 65) | 3 | 0.706 | 7.93 | 5.27 | inactive
TBC1D10B (TBC1 domain family member 10B) | 1 | -0.879 | -3.22 | 3.2 | inactive
TBC1D10B (TBC1 domain family member 10B) | 2 | -0.712 | -2.04 | 3.06 | inactive
TBC1D10B (TBC1 domain family member 10B) | 3 | -0.401 | 0.144 | 3.35 | inactive
RPH3AL (rabphilin 3A like (without C2 domains)) | 1 | -1.25 | -5.83 | 1.59 | inactive
RPH3AL (rabphilin 3A like (without C2 domains)) | 2 | -0.461 | -0.277 | 5.86 | inactive
RPH3AL (rabphilin 3A like (without C2 domains)) | 3 | -0.753 | -2.33 | 2.36 | inactive
GTF3C2 (general transcription factor IIIC subunit 2) | 1 | 1.2 | 11.4 | 10 | inactive
GTF3C2 (general transcription factor IIIC subunit 2) | 2 | -0.835 | -2.91 | 3.13 | inactive
GTF3C2 (general transcription factor IIIC subunit 2) | 3 | -1 | -4.09 | 3.56 | inactive
RGS13 (regulator of G protein signaling 13) | 1 | 0.494 | 6.44 | 7.19 | inactive
RGS13 (regulator of G protein signaling 13) | 2 | 0.0143 | 3.07 | 5.85 | inactive
RGS13 (regulator of G protein signaling 13) | 3 | -1.25 | -5.81 | 2.21 | inactive
HOXD3 (homeobox D3) | 1 | -0.557 | -0.955 | 5.32 | inactive
HOXD3 (homeobox D3) | 2 | -0.767 | -2.43 | 3.31 | inactive
HOXD3 (homeobox D3) | 3 | -0.942 | -3.66 | 3.71 | inactive
SHROOM3 (shroom family member 3) | 1 | -0.875 | -3.19 | 3.07 | inactive
SHROOM3 (shroom family member 3) | 2 | -1.42 | -7.05 | 1.85 | inactive
SHROOM3 (shroom family member 3) | 3 | 1.7 | 14.9 | 11.8 | inactive
